PMC10957924
Results are given in words; binding and its absence hold for the method and conditions named. For some assays here: Binding seen in cells or lysates may run through a third protein. Some entries that bind do so weakly or less than the wild type. Sequences can lack the tags named with a protein.

Chains of the proteins cited; added tags and fusions are not shown. Residues count along the entry.
UniProt B1AWN6, residues 1778-2006: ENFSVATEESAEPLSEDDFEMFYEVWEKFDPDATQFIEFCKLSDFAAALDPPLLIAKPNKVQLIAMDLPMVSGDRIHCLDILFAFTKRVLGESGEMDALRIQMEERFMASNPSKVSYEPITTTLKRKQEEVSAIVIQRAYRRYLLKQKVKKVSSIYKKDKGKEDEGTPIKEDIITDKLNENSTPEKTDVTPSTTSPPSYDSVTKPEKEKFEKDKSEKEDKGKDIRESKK
UniProt Q9WTU3, residues 1765-1978: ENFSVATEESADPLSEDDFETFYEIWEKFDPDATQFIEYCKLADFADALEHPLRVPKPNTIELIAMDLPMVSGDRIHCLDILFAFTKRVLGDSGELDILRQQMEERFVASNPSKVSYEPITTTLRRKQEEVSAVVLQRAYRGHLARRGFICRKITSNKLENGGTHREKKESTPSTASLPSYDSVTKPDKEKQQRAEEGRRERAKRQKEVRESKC

Legend:
[1] = target: C-terminus of NaV1.2 (amino acids 1778-2006) fused to the DNA-binding domain of LexA (UniProt B1AWN6); assay: two-hybrid; library screen: L40 yeast co-transfected with the LexA bait plasmid pSN12CT and an adult mouse brain cDNA library in fusion with the GAL4 activation domain; growth on -his -leu -trp medium at 30 °C and LexA-driven β-galactosidase activity
[2] = target: C-terminus of NaV1.6 (amino acids 1765-1978) fused to the DNA-binding domain of LexA (mouse) (UniProt Q9WTU3); assay: two-hybrid; mating: prey-only L40 cells crossed with AMR70 cells carrying LexA bait plasmids (pSN12CT, pSN16CT or negative controls); β-galactosidase activity with X-gal
[3] = target: C-terminus of NaV1.2 (amino acids 1778-2006) fused to the DNA-binding domain of LexA (UniProt B1AWN6); assay: as above
[4] = target: GST-NaV1.2CT (UniProt B1AWN6); assay: pull-down; GST proteins on glutathione sepharose beads incubated with the lysate of BL21 cells making His6-Calp10, 1 h at 37 °C, in presence or absence of calcium; binding buffer 50 mM Tris-HCl pH 7.5, 120 mM NaCl, 2 mM EGTA, 0.1% triton X-100, 2 mM DTT; western blot with anti-polyhistidine; only the target purified
[5] = target: GST-NaV1.6CT (mouse) (UniProt Q9WTU3); assay: as above

Binder	binding [1]	binding [2]	binding [3]	binding [4]	binding [5]
Calpain-10 (amino acids 452 to 666), clone T22-322, fused to the GAL4 activation domain (domain or fragment, UniProt Q9ESK3 452-666) RCELSPGYYLAVPSTFLKDVPGQFLLRVFSTGKISLSAVRLATKGASPGTALPAGEWETVQLQGCWRAGQTAGGSRNFASYPCNPCLPFSVPEGAGPRYIRITLQQHCRLSDSQLHPIGFHVFQVPADGENQDACSLLLQEPLLSCVPHRYAQEVSRLCLLSVGNYRIVPSTYLPDTEGTFTVTIATRIDRQSIHSQEMLGQLLQEVSFMAVMKA	binds	binds	binds		
His6-tagged Calpain 10 (amino acids 452-666) (domain or fragment, UniProt Q9ESK3 452-666) RCELSPGYYLAVPSTFLKDVPGQFLLRVFSTGKISLSAVRLATKGASPGTALPAGEWETVQLQGCWRAGQTAGGSRNFASYPCNPCLPFSVPEGAGPRYIRITLQQHCRLSDSQLHPIGFHVFQVPADGENQDACSLLLQEPLLSCVPHRYAQEVSRLCLLSVGNYRIVPSTYLPDTEGTFTVTIATRIDRQSIHSQEMLGQLLQEVSFMAVMKA				binds	binds
